No constants are given. Whether binding was seen depends on the method and setting. Binding seen in cells or lysates may run through a third protein. Some binding calls cover weakened binding; strength is not graded here. For some assays here: Sequences can lack the tags named with a protein.

Chains of the proteins cited; added tags and fusions are not shown. Lines headed by an entry give the natural chain unless they say otherwise; changes in a name come on top. Residues count along the entry.
UniProt Q9NZQ7: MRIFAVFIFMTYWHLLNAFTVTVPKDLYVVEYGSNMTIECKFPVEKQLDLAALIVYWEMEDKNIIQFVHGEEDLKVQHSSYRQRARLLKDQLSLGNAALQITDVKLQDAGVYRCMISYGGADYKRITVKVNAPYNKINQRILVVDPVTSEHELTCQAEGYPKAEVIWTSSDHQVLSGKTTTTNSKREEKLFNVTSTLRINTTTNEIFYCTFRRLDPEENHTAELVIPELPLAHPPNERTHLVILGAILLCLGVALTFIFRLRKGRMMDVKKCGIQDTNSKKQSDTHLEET
programmed death-ligand 1 (PD-L1), endogenous (human (endogenous in PLC and MHCC-97H)): residues 19-290 of Q9NZQ7
UniProt Q8WUM4: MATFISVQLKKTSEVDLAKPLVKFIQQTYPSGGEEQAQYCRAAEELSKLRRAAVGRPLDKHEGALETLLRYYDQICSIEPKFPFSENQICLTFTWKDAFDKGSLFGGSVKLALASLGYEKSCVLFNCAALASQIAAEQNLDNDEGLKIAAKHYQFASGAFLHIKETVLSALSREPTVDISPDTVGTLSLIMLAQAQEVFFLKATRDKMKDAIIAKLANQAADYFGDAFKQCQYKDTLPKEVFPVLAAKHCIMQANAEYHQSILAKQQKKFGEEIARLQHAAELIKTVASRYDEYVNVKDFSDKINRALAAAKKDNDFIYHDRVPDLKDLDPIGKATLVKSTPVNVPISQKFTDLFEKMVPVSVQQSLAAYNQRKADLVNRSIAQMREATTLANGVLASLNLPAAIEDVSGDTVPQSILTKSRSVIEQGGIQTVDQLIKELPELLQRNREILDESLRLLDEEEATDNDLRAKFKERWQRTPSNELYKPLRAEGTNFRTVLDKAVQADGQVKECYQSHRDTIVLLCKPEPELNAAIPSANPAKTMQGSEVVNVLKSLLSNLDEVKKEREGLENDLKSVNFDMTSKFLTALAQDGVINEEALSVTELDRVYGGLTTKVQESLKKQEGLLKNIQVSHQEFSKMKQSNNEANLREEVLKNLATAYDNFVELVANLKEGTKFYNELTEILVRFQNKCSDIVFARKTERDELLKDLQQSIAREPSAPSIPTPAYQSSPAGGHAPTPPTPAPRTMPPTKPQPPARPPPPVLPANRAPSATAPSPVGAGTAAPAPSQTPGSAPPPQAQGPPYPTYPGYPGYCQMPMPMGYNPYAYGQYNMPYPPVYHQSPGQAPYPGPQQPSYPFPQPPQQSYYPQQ
UniProt Q92905: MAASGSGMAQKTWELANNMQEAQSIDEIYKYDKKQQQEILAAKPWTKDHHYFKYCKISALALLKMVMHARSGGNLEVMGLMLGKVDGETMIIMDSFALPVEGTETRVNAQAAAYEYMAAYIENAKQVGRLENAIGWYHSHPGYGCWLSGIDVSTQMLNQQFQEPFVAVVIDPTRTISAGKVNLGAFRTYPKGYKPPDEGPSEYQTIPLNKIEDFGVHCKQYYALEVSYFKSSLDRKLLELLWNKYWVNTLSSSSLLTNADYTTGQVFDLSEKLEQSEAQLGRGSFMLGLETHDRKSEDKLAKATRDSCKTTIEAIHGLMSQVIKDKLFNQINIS
UniProt P21926: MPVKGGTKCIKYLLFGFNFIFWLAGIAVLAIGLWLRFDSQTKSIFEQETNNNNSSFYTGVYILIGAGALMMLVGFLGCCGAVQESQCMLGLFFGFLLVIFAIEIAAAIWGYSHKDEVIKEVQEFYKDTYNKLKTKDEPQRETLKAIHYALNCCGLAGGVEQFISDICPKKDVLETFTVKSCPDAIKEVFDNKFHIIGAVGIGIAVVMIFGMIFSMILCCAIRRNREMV
UniProt P08962: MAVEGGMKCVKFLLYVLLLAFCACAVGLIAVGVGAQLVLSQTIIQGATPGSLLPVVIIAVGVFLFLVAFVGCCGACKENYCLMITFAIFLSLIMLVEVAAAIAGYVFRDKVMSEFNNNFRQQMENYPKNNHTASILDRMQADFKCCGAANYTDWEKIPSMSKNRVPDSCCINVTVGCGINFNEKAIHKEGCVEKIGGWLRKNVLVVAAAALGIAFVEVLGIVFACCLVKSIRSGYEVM

Data on seven molecules can be found in article PMC8602261.

For assay [1], the target named is T1, Flag-GOLM1 (Golgi membrane protein 1) (UniProt Q8NBJ4).
T1 sequence: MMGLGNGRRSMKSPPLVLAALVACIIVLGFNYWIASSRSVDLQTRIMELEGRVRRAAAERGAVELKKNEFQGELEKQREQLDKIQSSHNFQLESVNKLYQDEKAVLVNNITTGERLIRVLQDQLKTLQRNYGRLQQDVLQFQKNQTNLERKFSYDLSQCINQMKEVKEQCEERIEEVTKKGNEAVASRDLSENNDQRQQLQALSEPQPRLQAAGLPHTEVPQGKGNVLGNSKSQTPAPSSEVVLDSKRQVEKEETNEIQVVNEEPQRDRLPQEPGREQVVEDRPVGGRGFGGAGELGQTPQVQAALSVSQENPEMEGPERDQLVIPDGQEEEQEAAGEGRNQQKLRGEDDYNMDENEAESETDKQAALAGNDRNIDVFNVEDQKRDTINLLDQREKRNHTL
Kind of assay: co-IP; PLC cells transfected with FLAG-GOLM1 or empty vector (control), cell lysate, IP using anti-FLAG magnetic beads, Western blot.

Assay [2] has as its target T1, Flag-GOLM1 (Golgi membrane protein 1). The experiment in a line: co-IP; exosomes of GOLM1^Flag PLC cells, IP using anti-FLAG magnetic beads, Western blot. (In general: Immunoblotting shows a protein as a band on a membrane.)
The target in assay [3] is T2, GST-GOLM1 (UniProt Q8NBJ4).
T2 sequence: T1 sequence
Kind of assay: pull-down; GST pulldown; GST-GOLM1 expressed in E. coli and purified; full-length PD-L1 produced via in vitro translation; only the target purified.

Assay [4] concerns the target programmed death-ligand 1 (PD-L1), endogenous (human (endogenous in PLC and MHCC-97H)) (UniProt Q9NZQ7). Kind of assay: co-IP; endogenous proteins in MHCC-97H cells, Western blot.
The target is the same in assay [5]. Kind of assay: co-IP; endogenous proteins in exosomes of MHCC-97H cells, Western blot.

Turning to Alix (from UniProt Q8WUM4 1-868), the binding result in assay [1] is listed as “binds”. Regarding “programmed death-ligand 1 (PD-L1), endogenous (from UniProt Q9NZQ7 19-290)”, the binding result in assay [1] and in assay [2] was “binds” in each case. For “full-length PD-L1, in vitro translated (from UniProt Q9NZQ7 1-290)”, in assay [3], the binding entry is recorded as “binds”.

In the case of “COP9 signalosome 5 (CSN5) (from UniProt Q92905 1-334)”, the binding entry in assay [4] and in assay [1] was “binds” throughout. With CD9 (from UniProt P21926 1-228), in assay [1], the binding result is “binds”. In the case of CD63 (from UniProt P08962 1-238), the binding entry in assay [4] and in assay [1] was “binds” throughout.

B1: Golgi membrane protein 1 (GOLM1), endogenous (protein, UniProt Q8NBJ4 1-401)
chain: T1 sequence
With B1, the binding entry in assay [5] and in assay [4] was “binds” throughout.
